These are yes or no findings as the source states them, for the method shown. Binding seen in cells or lysates may run through a third protein. Some binding calls cover weakened binding; strength is not graded here. Sequences can lack the tags named with a protein.

The assay deals with T1, FLAG-tagged FAM111B (UniProt Q6SJ93).
T1 sequence: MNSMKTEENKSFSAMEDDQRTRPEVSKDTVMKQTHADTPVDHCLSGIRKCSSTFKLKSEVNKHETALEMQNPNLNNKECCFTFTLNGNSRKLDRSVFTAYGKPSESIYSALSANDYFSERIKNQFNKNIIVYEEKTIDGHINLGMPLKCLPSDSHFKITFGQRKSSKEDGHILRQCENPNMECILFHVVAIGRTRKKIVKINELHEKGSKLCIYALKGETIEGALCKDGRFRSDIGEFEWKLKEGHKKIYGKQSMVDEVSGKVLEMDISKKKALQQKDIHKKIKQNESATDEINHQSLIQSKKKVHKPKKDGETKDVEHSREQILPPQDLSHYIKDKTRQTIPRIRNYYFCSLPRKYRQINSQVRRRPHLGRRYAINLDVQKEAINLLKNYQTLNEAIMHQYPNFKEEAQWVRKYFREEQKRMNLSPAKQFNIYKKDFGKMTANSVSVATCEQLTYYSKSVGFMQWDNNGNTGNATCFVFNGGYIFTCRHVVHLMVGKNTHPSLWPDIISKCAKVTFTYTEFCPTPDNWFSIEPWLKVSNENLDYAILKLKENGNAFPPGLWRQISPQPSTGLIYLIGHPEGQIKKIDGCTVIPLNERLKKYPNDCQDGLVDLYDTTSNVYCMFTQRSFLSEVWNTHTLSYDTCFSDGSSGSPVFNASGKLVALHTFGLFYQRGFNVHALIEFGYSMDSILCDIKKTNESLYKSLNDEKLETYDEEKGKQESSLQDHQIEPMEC
The assay can be described thus: pull-down; only the target purified.
On to “HAdV-C5 E1A 12S (from UniProt P03255-2 1-243)”, for which the binding result is “no binding”.

For the substance “HAdV-C5 E1B-55K (from UniProt P03243 1-496)”, the binding entry is given as “binds”.

Consider “HAdV-C5 E1A 13S (from UniProt P03255 1-289)”, for which the binding entry is “no binding”.
